This is one part of the list.
Experiments:
Test in all cases: log2 fold change, soluble protein after heating vs DMSO (PISA); higher = thermal stabilisation; K562 cells, 10 uM, 30 min; active = over 0.2 and 3.5 SD of the protein, either way, in both replicates (recomputed)
[1] = compound: CC[C@@H]1C(=O)N(C)c2cnc(Nc3ccc(C(=O)NC4CCN(C)CC4)cc3OC)nc2N1C1CCCC1
Outline: (§1)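 Quantification of soluble protein used TMTpro 16plex LC-MS/MS, with channel sums equalised. Samples were the supernatant after 21,000xg for 90 min of pooled aliquots from K562 cells (2×10^6 cells/mL) treated with 10 μM compound for 30 min, heated for 3 min over 48°C-58°C, and extracted in PBS with 0.5% NP-40 at 4°C. Values, from duplicates, describe thermal stability against control samples on a log2 fold-change scale.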

By UniProt entry, the sequences of proteins in these tests, tags left out. Where a name states a change or a piece, a line headed by the entry shows the natural chain unless it says otherwise.
UniProt Q15121, whole entry, looked up: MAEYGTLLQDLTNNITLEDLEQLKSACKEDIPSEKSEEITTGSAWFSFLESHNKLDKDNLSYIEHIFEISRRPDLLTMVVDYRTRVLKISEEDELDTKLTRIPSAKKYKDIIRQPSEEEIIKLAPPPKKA
UniProt P11498: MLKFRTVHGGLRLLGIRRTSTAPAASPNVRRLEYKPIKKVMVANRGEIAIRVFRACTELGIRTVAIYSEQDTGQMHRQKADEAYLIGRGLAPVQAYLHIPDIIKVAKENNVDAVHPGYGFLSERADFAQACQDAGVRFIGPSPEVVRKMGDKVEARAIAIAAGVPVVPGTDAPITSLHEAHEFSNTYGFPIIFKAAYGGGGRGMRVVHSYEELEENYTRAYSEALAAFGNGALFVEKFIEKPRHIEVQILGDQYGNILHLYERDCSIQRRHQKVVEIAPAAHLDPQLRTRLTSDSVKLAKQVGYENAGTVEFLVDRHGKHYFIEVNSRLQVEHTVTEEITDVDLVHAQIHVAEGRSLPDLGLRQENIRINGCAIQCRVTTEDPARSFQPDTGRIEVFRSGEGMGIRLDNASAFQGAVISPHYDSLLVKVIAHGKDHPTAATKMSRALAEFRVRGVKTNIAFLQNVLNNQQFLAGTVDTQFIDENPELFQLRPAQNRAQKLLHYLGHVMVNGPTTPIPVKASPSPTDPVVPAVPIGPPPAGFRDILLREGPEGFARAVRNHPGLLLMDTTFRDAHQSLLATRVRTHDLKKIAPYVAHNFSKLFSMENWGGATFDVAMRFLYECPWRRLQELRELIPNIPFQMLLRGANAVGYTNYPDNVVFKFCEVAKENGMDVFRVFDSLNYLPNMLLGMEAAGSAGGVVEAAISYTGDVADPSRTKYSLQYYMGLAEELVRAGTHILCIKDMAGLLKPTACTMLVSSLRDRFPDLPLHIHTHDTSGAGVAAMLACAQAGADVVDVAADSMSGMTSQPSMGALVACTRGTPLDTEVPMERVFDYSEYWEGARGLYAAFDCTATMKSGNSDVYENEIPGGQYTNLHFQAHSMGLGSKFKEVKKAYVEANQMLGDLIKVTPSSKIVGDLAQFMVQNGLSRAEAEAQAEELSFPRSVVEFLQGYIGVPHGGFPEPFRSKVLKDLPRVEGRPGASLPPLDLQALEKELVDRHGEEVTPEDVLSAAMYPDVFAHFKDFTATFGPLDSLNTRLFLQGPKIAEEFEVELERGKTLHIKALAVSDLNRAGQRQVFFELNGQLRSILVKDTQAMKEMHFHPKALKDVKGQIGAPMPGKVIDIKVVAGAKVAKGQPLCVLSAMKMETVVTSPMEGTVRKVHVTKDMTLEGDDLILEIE
UniProt O96013: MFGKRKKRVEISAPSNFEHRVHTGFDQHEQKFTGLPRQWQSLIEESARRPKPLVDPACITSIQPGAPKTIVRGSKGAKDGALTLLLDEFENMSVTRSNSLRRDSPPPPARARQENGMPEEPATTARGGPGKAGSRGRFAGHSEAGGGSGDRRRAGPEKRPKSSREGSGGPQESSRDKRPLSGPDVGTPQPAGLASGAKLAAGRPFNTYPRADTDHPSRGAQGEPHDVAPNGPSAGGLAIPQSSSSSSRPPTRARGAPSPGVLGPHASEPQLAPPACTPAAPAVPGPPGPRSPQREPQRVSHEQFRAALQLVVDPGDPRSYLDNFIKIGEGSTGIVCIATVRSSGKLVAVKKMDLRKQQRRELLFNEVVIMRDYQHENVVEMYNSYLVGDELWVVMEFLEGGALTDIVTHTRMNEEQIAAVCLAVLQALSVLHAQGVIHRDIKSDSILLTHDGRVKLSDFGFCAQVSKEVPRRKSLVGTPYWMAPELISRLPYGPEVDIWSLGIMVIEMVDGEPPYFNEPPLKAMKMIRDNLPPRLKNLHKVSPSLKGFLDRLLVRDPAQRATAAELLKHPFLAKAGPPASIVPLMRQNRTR
UniProt Q8TEW0: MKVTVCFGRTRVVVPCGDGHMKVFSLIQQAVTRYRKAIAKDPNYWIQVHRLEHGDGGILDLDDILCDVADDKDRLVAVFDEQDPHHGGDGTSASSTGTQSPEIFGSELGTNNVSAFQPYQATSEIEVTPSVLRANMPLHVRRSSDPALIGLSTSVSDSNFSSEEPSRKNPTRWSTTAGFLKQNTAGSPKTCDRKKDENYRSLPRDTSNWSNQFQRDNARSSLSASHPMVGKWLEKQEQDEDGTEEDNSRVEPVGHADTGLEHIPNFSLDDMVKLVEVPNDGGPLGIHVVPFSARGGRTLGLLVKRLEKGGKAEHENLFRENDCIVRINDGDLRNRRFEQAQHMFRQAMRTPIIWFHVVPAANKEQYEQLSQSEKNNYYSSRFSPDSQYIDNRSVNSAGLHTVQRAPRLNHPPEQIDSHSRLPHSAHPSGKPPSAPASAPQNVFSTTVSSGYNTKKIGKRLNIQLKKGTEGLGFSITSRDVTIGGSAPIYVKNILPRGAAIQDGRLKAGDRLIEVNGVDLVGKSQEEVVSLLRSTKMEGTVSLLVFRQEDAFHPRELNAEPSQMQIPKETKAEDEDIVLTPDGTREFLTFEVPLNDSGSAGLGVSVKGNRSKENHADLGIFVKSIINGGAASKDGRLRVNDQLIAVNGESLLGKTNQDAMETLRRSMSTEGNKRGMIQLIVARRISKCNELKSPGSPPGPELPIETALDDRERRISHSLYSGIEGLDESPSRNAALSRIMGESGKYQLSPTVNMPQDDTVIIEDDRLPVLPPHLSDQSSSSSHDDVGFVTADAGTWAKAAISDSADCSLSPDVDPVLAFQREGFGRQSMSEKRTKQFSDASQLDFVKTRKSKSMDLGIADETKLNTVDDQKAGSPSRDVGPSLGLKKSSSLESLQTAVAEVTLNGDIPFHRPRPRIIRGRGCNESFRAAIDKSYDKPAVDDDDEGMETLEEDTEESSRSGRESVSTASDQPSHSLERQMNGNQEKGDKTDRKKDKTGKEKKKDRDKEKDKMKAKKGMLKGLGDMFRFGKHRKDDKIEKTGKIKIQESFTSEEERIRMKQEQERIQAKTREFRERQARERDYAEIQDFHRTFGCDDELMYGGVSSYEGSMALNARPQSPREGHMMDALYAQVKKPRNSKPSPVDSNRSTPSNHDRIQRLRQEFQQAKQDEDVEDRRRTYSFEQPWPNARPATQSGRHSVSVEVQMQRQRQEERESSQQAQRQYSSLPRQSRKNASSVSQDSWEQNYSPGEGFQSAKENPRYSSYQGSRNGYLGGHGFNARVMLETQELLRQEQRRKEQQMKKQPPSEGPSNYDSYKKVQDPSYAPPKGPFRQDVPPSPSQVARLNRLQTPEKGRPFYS
UniProt Q15004: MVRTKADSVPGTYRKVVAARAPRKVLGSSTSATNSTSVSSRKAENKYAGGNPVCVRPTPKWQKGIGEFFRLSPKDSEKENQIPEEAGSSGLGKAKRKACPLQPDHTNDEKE
UniProt Q8N5Y8: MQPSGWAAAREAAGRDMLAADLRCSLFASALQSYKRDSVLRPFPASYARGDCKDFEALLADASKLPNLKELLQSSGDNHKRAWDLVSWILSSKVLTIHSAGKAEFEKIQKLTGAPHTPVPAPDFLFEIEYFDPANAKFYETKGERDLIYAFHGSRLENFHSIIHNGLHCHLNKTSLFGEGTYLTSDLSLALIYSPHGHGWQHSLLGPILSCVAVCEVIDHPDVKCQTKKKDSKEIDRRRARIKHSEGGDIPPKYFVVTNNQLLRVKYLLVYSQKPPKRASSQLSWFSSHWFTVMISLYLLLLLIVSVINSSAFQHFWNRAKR
UniProt O94913, whole entry, looked up: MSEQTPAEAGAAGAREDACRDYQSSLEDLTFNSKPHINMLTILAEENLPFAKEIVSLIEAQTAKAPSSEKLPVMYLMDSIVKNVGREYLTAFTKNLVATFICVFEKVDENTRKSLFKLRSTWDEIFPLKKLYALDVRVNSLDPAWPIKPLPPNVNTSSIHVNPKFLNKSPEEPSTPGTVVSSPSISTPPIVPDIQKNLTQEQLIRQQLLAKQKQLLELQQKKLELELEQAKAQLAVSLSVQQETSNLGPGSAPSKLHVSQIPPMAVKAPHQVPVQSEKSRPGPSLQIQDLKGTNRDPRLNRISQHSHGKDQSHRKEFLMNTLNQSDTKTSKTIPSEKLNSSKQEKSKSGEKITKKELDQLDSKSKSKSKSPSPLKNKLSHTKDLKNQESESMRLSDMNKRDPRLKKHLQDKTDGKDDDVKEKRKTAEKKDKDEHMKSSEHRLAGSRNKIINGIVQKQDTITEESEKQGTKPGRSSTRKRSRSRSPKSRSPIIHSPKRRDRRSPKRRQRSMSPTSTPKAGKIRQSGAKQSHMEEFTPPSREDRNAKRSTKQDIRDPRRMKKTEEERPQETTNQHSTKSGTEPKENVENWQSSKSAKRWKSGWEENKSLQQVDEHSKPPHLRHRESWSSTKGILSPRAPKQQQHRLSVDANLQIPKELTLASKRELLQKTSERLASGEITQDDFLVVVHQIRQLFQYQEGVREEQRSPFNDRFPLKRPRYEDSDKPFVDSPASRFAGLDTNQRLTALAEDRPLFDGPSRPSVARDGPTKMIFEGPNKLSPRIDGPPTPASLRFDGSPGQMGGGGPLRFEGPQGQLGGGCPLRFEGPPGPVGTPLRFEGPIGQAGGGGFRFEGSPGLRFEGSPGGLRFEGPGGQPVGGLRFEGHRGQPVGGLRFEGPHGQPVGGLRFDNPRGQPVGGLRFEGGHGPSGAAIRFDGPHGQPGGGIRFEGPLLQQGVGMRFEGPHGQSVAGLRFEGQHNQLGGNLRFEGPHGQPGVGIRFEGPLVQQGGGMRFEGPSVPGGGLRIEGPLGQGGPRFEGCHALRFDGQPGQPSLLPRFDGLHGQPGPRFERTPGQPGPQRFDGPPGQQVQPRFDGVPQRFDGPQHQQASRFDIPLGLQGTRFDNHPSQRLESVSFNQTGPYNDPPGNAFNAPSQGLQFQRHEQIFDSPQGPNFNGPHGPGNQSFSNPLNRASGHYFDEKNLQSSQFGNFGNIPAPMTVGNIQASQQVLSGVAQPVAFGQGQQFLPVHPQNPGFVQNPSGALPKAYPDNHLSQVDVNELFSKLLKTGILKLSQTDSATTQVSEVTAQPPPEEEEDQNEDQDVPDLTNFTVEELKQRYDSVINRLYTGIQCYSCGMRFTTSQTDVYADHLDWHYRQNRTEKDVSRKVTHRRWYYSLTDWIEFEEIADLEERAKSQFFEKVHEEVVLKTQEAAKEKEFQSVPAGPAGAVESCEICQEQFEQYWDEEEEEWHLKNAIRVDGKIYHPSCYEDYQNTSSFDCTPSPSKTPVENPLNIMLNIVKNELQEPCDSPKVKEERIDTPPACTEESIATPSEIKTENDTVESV
UniProt P09874, whole entry, looked up: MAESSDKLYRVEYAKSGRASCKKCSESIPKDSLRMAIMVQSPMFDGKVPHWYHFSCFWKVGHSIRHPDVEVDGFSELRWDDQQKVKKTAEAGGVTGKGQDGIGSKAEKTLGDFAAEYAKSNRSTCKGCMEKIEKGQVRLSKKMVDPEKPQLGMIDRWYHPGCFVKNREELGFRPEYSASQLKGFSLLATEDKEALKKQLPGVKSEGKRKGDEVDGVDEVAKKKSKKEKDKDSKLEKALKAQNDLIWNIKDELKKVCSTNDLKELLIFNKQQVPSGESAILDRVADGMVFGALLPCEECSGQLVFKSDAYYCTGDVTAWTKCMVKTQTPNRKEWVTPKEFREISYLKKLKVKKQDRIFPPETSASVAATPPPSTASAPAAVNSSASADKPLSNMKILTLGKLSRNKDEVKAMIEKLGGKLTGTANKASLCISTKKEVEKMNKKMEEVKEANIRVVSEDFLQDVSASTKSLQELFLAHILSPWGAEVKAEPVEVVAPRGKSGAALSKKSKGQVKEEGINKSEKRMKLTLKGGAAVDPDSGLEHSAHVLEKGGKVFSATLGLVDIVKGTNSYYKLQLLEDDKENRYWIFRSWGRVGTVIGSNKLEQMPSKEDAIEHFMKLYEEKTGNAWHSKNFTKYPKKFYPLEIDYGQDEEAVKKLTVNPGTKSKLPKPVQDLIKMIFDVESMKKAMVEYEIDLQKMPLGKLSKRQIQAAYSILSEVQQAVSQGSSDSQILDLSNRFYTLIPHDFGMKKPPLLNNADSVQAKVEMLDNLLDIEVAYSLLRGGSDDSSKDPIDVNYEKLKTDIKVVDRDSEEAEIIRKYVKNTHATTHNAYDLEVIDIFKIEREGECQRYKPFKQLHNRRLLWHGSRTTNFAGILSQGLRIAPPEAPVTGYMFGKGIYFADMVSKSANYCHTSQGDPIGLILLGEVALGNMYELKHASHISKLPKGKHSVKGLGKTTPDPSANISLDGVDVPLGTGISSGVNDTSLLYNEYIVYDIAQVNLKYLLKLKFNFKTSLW
UniProt Q8N165: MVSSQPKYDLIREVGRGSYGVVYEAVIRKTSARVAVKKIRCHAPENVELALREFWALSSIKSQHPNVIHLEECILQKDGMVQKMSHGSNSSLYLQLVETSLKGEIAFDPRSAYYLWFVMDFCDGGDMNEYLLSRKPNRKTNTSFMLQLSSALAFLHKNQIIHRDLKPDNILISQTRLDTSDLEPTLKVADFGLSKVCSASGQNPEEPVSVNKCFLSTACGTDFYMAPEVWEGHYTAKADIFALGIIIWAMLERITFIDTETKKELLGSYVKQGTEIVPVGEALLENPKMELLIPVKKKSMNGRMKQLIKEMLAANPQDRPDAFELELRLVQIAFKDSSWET

[2] = compound: CC[C@@H]1C(=O)N(C)c2cnc(Nc3ccc(C(=O)N[C@H]4CC[C@H](N5CCN(CC6CC6)CC5)CC4)cc3OC)nc2N1C(C)C [volasertib]
Outline: as §1

[3] = compound: CC[C@H](C)N1C=C(C2=C(C=C(C=C21)C3=CN=C(C=C3)N4CCNCC4)C(=O)NCC5=C(C=C(NC5=O)C)C)C
Outline: as §1

[4] = compound: CC[C@H](C)[C@@H](C(=O)N[C@@H]([C@@H](C)O)C(=O)N[C@@H](CC(C)C)C(=O)[C@]1(CO1)C)NC(=O)[C@H]([C@@H](C)CC)N(C)C(=O)C [epoxomicin]
Outline: as §1

[5] = compound: CCn1cc(-c2ccnc3[nH]c(-c4cccc(CN(C)C)c4)cc23)c(-c2ccc(NC(=O)N(C)C)cc2)n1
Outline: as §1

[6] = compound: CN(C)CC(=O)Nc1ccc2[nH]c(=O)c3ccccc3c2c1
Outline: as §1

[7] = compound: CN1C2=C(C3=C1C(=O)N(N=C3)CC4=CC(=CC=C4)N)SC(=C2)S(=O)C
Outline: as §1

[8] = compound: CN1CCC(CNc2ccc3ncc(-c4cccc(OC(F)(F)F)c4)n3n2)CC1
Outline: as §1

[9] = compound: CN1CCN(CCOc2cc(OC3CCOCC3)c3c(Nc4c(Cl)ccc5c4OCO5)ncnc3c2)CC1 [saracatinib]
Outline: as §1

[10] = compound: CN1CCN(c2nc(C3=C(c4c[nH]c5ccccc45)C(=O)NC3=O)c3ccccc3n2)CC1 [sotrastaurin]
Outline: as §1

[11] = compound: CN1CCc2c(c3ccccc3n2Cc2ccc(C(=O)NO)cc2)C1 [Tubastatin A]
Outline: as §1

[12] = compound: CNC(=O)C1=CC=CC=C1NC2=NC(=NC=C2Cl)NC3=C(C=C(C=C3)N4CCOCC4)OC
Outline: as §1

[13] = compound: CNC(=O)c1ccc(Nc2ncc(C(F)(F)F)c(NCc3nccnc3N(C)S(C)(=O)=O)n2)cc1 [defactinib]
Outline: as §1

[14] = compound: CNCc1ccc(-c2[nH]c3cc(F)cc4c3c2CCNC4=O)cc1 [rucaparib]
Outline: as §1

[15] = compound: CNc1nc(-c2ccc3c(N)n[nH]c3c2)cc(N2C[C@@H](C(=O)NC3CCCCC3)CC[C@H]2C)n1
Outline: as §1

[16] = compound: COC(=O)N[C@@H](C)CNc1nccc(-c2cn(C(C)C)nc2-c2cc(Cl)cc(NS(C)(=O)=O)c2F)n1 [encorafenib]
Outline: as §1

[17] = compound: COC(=O)[C@H](CCSC)NC(=O)C1=C(C=C(C=C1)NC[C@H](CS)N)C2=CC=CC=C2
Outline: as §1

[18] = compound: CN(CCOC1=CC=C(C=C1)C[C@H]2C(=O)NC(=O)S2)C3=CC=CC=N3 (racemic) [rosiglitazone]
Outline: as §1

[19] = compound: CN1CC[C@H](c2c(O)cc(O)c3c(=O)cc(-c4ccccc4Cl)oc23)[C@H](O)C1 [alvocidib]
Outline: as §1

Measured: log2 fold change

PEA15 isoform 2 (UniProt Q15121)
inactive: [1] -0.078 | [2] -0.162 | [3] -0.018 | [4] 0 | [5] 0.022 | [6] 0.004 | [7] -0.002 | [8] 0.039 | [9] 0.05 | [10] -0.02 | [11] -0.009 | [12] -0.147 | [13] -0.026 | [14] -0.037 | [15] 0.009 | [16] 0.035 | [17] 0.034

PAICS (UniProt D6RF62)
inactive: [1] -0.035 | [2] 0.026 | [5] 0.25 | [7] -0.102 | [8] -0.839 | [9] 0.001 | [14] 0.061 | [15] -0.225 | [16] -0.177

PC (UniProt P11498)
inactive: [1] -0.041 | [2] -0.069 | [3] 0.067 | [4] 0.041 | [5] -0.217 | [6] 0.027 | [7] -0.128 | [8] 0.03 | [9] -0.088 | [10] -0.033 | [11] 0.001 | [12] -0.023 | [13] -0.113 | [14] 0.043 | [15] 0.09 | [16] -0.044 | [17] -0.076

PAK4 (UniProt O96013)
inactive: [1] -0.026 | [2] -0.088 | [3] -0.026 | [4] -0.017 | [5] -0.059 | [6] -0.012 | [7] 0.049 | [8] -0.083 | [9] -0.047 | [10] 0.098 | [11] 0.005 | [12] -0.012 | [13] -0.017 | [14] -0.067 | [15] 0 | [16] 0.085 | [17] 0.03

Two records picked at random from the list so far, as already listed:
PAICS (UniProt D6RF62)
inactive: [1] -0.035 | [2] 0.026 | [5] 0.25 | [7] -0.102 | [8] -0.839 | [9] 0.001 | [14] 0.061 | [15] -0.225 | [16] -0.177

PC (UniProt P11498)
inactive: [1] -0.041 | [2] -0.069 | [3] 0.067 | [4] 0.041 | [5] -0.217 | [6] 0.027 | [7] -0.128 | [8] 0.03 | [9] -0.088 | [10] -0.033 | [11] 0.001 | [12] -0.023 | [13] -0.113 | [14] 0.043 | [15] 0.09 | [16] -0.044 | [17] -0.076

The list goes on.

PARD3 (UniProt Q8TEW0)
inactive: [1] 0.1 | [2] 0.066 | [5] 0.023 | [8] 0.143 | [14] 0.168 | [16] -0.092

PCLAF (UniProt Q15004)
inactive: [1] 0.085 | [2] 0.124 | [3] -0.046 | [4] 0.185 | [5] 0.035 | [6] -0.087 | [7] 0.001 | [8] 0.015 | [9] 0.057 | [10] 0.057 | [11] 0.08 | [12] -0.094 | [13] 0.076 | [14] -0.094 | [15] -0.161 | [16] -0.046 | [17] 0.093

PARP16 isoform 3 (UniProt Q8N5Y8)
active: [5] -0.252
inactive: [1] 0.103 | [2] -0.025 | [3] 0.067 | [4] 0.029 | [6] 0.061 | [7] -0.008 | [8] 0.096 | [9] 0.175 | [10] -0.038 | [11] 0.005 | [12] -0.009 | [13] 0.046 | [14] 0.198 | [15] -0.042 | [16] -0.087 | [17] -0.005

PDIA4, A0A499FI48
inactive: [1] -0.009 | [2] -0.045 | [5] 0.164 | [6] 0.057 | [7] 0.112 | [8] 0.155 | [9] -0.047 | [11] -0.064 | [13] -0.014 | [14] -0.162 | [15] -0.008 | [16] 0.056 | [17] 0.085

PCID2 (UniProt Q5JVF3)
inactive: [1] -0.032 | [2] 0.016 | [3] 0.072 | [4] 0.027 | [5] 0.035 | [6] -0.021 | [7] 0.055 | [8] -0.086 | [9] -0.164 | [10] -0.22 | [11] 0.006 | [12] -0.033 | [13] -0.281 | [14] 0.051 | [15] 0.008 | [16] -0.036 | [17] -0.101

PCNX1 (UniProt Q96RV3)
inactive: [1] 0.331 | [2] 0.132 | [3] -0.004 | [4] -0.017 | [6] -0.064 | [11] -0.041 | [13] 0.027 | [14] -0.123 | [16] 0.085 | [17] -0.039

PCSK6 isoform 7 (UniProt P29122)
inactive: [1] -0.143 | [2] -0.077 | [3] -0.089 | [5] 0.107 | [6] -0.049 | [18] 0.008 | [8] -0.158 | [10] 0.064 | [19] 0.099 | [13] 0.06 | [14] 0.044 | [16] 0.414 | [17] 0.05

PCYT1B (UniProt Q9Y5K3)
active: [2] -0.315
inactive: [1] -0.105 | [3] 0.08 | [4] 0.001 | [5] 0 | [6] 0.012 | [7] -0.007 | [8] 0.035 | [9] 0.133 | [10] -0.13 | [11] -0.028 | [12] -0.028 | [13] -0.162 | [14] -0.139 | [15] -0.036 | [16] 0.04 | [17] -0.029

PECAM1 (UniProt P16284)
inactive: [1] 0.116 | [2] 0.061 | [3] -0.019 | [4] -0.027 | [5] -0.106 | [6] 0.027 | [7] -0.067 | [8] 0.168 | [9] 0.062 | [10] 0.062 | [11] 0.096 | [12] -0.076 | [13] 0 | [14] 0 | [15] 0.003 | [16] -0.092 | [17] -0.007

PAFAH1B3 (UniProt Q15102)
inactive: [1] -0.017 | [2] 0.011 | [3] 0.042 | [4] 0.063 | [5] -0.098 | [6] 0.069 | [7] -0.012 | [8] 0.001 | [9] -0.109 | [10] -0.034 | [11] 0.026 | [12] 0.001 | [13] 0.021 | [14] 0.049 | [15] 0.002 | [16] -0.006 | [17] -0.071

PCF11 (UniProt O94913)
inactive: [1] -0.014 | [2] -0.114 | [5] 0.038 | [6] -0.078 | [8] -0.03 | [13] -0.059 | [16] -0.06 | [17] 0.095
active: [14] -0.995

PCK2 (UniProt Q16822)
inactive: [1] 0.012 | [2] -0.076 | [3] 0.033 | [4] 0.059 | [5] -0.07 | [6] 0 | [7] -0.094 | [8] 0.027 | [9] 0.021 | [10] -0.003 | [11] -0.139 | [12] -0.006 | [13] -0.048 | [14] -0.009 | [15] 0.015 | [16] -0.007 | [17] 0.01

PARP1 (UniProt P09874)
active: [2] -0.57 | [14] 1.05
inactive: [1] -0.233 | [3] 0.162 | [4] 0.1 | [5] 0.302 | [7] 0.027 | [8] -0.146 | [9] -0.025 | [10] -0.104 | [11] 0.037 | [12] 0.094 | [13] -0.089 | [15] 0.038 | [16] 0.079 | [17] -0.04

PDCD6 (UniProt O75340)
inactive: [1] -0.157 | [3] -0.006 | [4] 0.031 | [5] -0.01 | [6] 0.007 | [7] -0.041 | [8] -0.057 | [9] 0.038 | [10] -0.014 | [11] 0.001 | [12] 0.026 | [13] -0.017 | [14] -0.048 | [15] -0.153 | [16] 0.002 | [17] 0.004
active: [2] -0.283

PDIK1L (UniProt Q8N165)
inactive: [1] 0.123 | [2] 0.108 | [3] -0.056 | [4] -0.128 | [6] -0.028 | [7] 0.02 | [9] -0.062 | [10] 0.019 | [11] 0.063 | [12] 0.192 | [13] 0.014 | [14] 0.111 | [15] -0.064 | [16] -0.022 | [17] -0.115

PCBP2 (UniProt F8VRH0)
inactive: [1] -0.005 | [2] -0.051 | [3] 0.165 | [4] -0.252 | [5] -0.201 | [6] 0.139 | [7] -0.306 | [8] -0.149 | [9] 0.255 | [10] -0.319 | [11] 0.155 | [12] 0.105 | [13] 0.009 | [14] 0.066 | [15] -0.014 | [16] 0.014 | [17] 0.066

PDCD2 (UniProt Q16342)
inactive: [1] 0.054 | [4] 0.068 | [18] 0.033 | [7] 0.401 | [9] 0.052 | [10] -0.18 | [19] 0.016 | [11] 0.006 | [14] 0.078 | [15] 0.082 | [16] 0.067
